The supplement of paper PMC4604168 (melanoma cell lines)
The list shows a part of the results. Repeats are few or missing, and single values can be far off.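 Cells were imaged in 1,536-well plates, and nuclei stained with an antibody against cleaved PARP were counted against all DNA-stained nuclei to give the apoptosis fraction. Screening doses were chosen to leave most cells alive, and resting and induced cleaved-PARP levels differ strongly between cell lines.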

tested on: C32; test: cleaved PARP positive nuclei fraction relative to DMSO control; melanoma cells; higher = more apoptosis; conditions: library dose: low library concentration; 72 h

Compound | cleaved PARP positive nuclei fraction
CCCCCCCCCCCCCCCCCCOP(=O)([O-])OC1CC[N+](C)(C)CC1 [Perifosine] + NCC(=O)Nc1ccc(-n2nc(C(F)(F)F)cc2-c2ccc3c(ccc4ccccc43)c2)cc1 [OSU03012] (first compound 0.4 µM, partner dose 1 µM) | 83.6%
CCCCCCCCCCCCCCCCCCOP(=O)([O-])OC1CC[N+](C)(C)CC1 [Perifosine] + O=C(Nc1cccc(Cl)c1)Nc1ncc(CCNc2ncnc3ccsc23)s1 [SNS314] (first compound 0.4 µM, partner dose 0.0008 µM) | 58.9%
O=C(/C=C/c1cccnc1)NCCCCC1CCN(C(=O)c2ccccc2)CC1 + Cc1cc(N2CCOCC2)cc2[nH]c(-c3c(NC[C@@H](O)c4cccc(Cl)c4)cc[nH]c3=O)nc12 [BMS536924] (first compound 0.01 µM, partner dose 0.2 µM) | 102%
COc1cc([C@@H]2c3cc4c(cc3[C@@H](O[C@@H]3O[C@@H]5CO[C@@H](C)O[C@H]5[C@H](O)[C@H]3O)[C@H]3COC(=O)[C@H]23)OCO4)cc(OC)c1O [etoposide] + OCCn1cc(-c2cnc3nnn(Cc4ccc5ncccc5c4)c3n2)cn1 [PF04217903] (first compound 0.02 µM, partner dose 1 µM) | 227%
COc1cc([C@@H]2c3cc4c(cc3[C@@H](O[C@@H]3O[C@@H]5CO[C@@H](C)O[C@H]5[C@H](O)[C@H]3O)[C@H]3COC(=O)[C@H]23)OCO4)cc(OC)c1O [etoposide] + Cc1cc(N2CCOCC2)cc2[nH]c(-c3c(NC[C@@H](O)c4cccc(Cl)c4)cc[nH]c3=O)nc12 [BMS536924] (first compound 0.02 µM, partner dose 0.2 µM) | 61.5%
O=c1[nH]nc(Sc2ncc([N+](=O)[O-])s2)n1-c1ccc2c(c1)OCCO2 + O=C(CCCCCCC(=O)Nc1ccccc1)NO [vorinostat] (first compound 0.2 µM, partner dose 0.08 µM) | 88.6%
Cc1ccc(Nc2nccc(N(C)c3ccc4c(C)n(C)nc4c3)n2)cc1S(N)(=O)=O [Pazopanib] + CO[C@@H]1[C@H](N(C)C(=O)c2ccccc2)C[C@H]2O[C@]1(C)n1c3ccccc3c3c4c(c5c6ccccc6n2c5c31)C(=O)NC4 [Midostaurin] (first compound 0.4 µM, partner dose 0.08 µM) | 65.9%
N#CC[C@H](C1CCCC1)n1cc(-c2ncnc3[nH]ccc23)cn1 [ruxolitinib] + Cc1cc(N2CCOCC2)cc2[nH]c(-c3c(NC[C@@H](O)c4cccc(Cl)c4)cc[nH]c3=O)nc12 [BMS536924] (first compound 1 µM, partner dose 0.2 µM) | 30.8%
COc1cc([C@@H]2c3cc4c(cc3[C@@H](O[C@@H]3O[C@@H]5CO[C@@H](C)O[C@H]5[C@H](O)[C@H]3O)[C@H]3COC(=O)[C@H]23)OCO4)cc(OC)c1O [etoposide] + CO[C@@H]1[C@H](N(C)C(=O)c2ccccc2)C[C@H]2O[C@]1(C)n1c3ccccc3c3c4c(c5c6ccccc6n2c5c31)C(=O)NC4 [Midostaurin] (first compound 0.02 µM, partner dose 0.08 µM) | 115%
COc1cc([C@@H]2c3cc4c(cc3[C@@H](O[C@@H]3O[C@@H]5CO[C@@H](C)O[C@H]5[C@H](O)[C@H]3O)[C@H]3COC(=O)[C@H]23)OCO4)cc(OC)c1O [etoposide] + O=C(Nc1cccc(Cl)c1)Nc1ncc(CCNc2ncnc3ccsc23)s1 [SNS314] (first compound 0.02 µM, partner dose 0.0008 µM) | 152%
CCCCCCCCCCCCCCCCCCOP(=O)([O-])OC1CC[N+](C)(C)CC1 [Perifosine] + NC(=O)Nc1cc(-c2cccc(F)c2)sc1C(=O)N[C@H]1CCCNC1 [AZD7762] (first compound 0.4 µM, partner dose 0.02 µM) | 124%
O=C(/C=C/c1cccnc1)NCCCCC1CCN(C(=O)c2ccccc2)CC1 + CO[C@@H]1[C@H](N(C)C(=O)c2ccccc2)C[C@H]2O[C@]1(C)n1c3ccccc3c3c4c(c5c6ccccc6n2c5c31)C(=O)NC4 [Midostaurin] (first compound 0.01 µM, partner dose 0.08 µM) | 224%
CC[C@]1(O)C[C@H]2CN(CCc3c([nH]c4ccccc34)[C@@](C(=O)OC)(c3cc4c(cc3OC)N(C=O)[C@H]3[C@@](O)(C(=O)OC)[C@H](OC(C)=O)[C@]5(CC)C=CCN6CC[C@]43[C@@H]65)C2)C1 [vincristine] + CN(C)S(=O)(=O)c1ccc2c(c1)/C(=C/c1cc3c([nH]1)CCCC3)C(=O)N2 [SU6656] (first compound 0.0001 µM, partner dose 0.4 µM) | 306%
O=C(/C=C/c1cccnc1)NCCCCC1CCN(C(=O)c2ccccc2)CC1 + CN(C)S(=O)(=O)c1ccc2c(c1)/C(=C/c1cc3c([nH]1)CCCC3)C(=O)N2 [SU6656] (first compound 0.01 µM, partner dose 0.4 µM) | 57.1%
Cc1ccc(Nc2nccc(N(C)c3ccc4c(C)n(C)nc4c3)n2)cc1S(N)(=O)=O [Pazopanib] + NC(=O)Nc1cc(-c2cccc(F)c2)sc1C(=O)N[C@H]1CCCNC1 [AZD7762] (first compound 0.4 µM, partner dose 0.02 µM) | 104%
Cc1cn(-c2cc(NC(=O)c3ccc(C)c(Nc4nccc(-c5cccnc5)n4)c3)cc(C(F)(F)F)c2)cn1 [nilotinib] + NC(=O)Nc1cc(-c2cccc(F)c2)sc1C(=O)N[C@H]1CCCNC1 [AZD7762] (first compound 0.2 µM, partner dose 0.02 µM) | 147%
CCCCCCCCCCCCCCCCCCOP(=O)([O-])OC1CC[N+](C)(C)CC1 [Perifosine] + C[C@@H]1CCN(C(=O)CC#N)C[C@@H]1N(C)c1ncnc2[nH]ccc12 [CP690550] (first compound 0.4 µM, partner dose 1 µM) | 199%
N#CC[C@H](C1CCCC1)n1cc(-c2ncnc3[nH]ccc23)cn1 [ruxolitinib] + C[C@@H]1CCN(C(=O)CC#N)C[C@@H]1N(C)c1ncnc2[nH]ccc12 [CP690550] (first compound 1 µM, partner dose 1 µM) | 52.1%
COc1cc([C@@H]2c3cc4c(cc3[C@@H](O[C@@H]3O[C@@H]5CO[C@@H](C)O[C@H]5[C@H](O)[C@H]3O)[C@H]3COC(=O)[C@H]23)OCO4)cc(OC)c1O [etoposide] + Cn1cncc1[C@@](N)(c1ccc(Cl)cc1)c1ccc2c(c1)c(-c1cccc(Cl)c1)cc(=O)n2C [tipifarnib] (first compound 0.02 µM, partner dose 0.01 µM) | 104%
N#CC[C@H](C1CCCC1)n1cc(-c2ncnc3[nH]ccc23)cn1 [ruxolitinib] + Cc1ccc(NC(=O)c2cccc(N(C)C)c2)cc1NC(=O)c1ccc(O)cc1 [ZM336372] (first compound 1 µM, partner dose 2 µM) | 133%
N#CC[C@H](C1CCCC1)n1cc(-c2ncnc3[nH]ccc23)cn1 [ruxolitinib] + COc1cc2c(Oc3ccc4[nH]c(C)cc4c3F)ncnc2cc1OCCCN1CCCC1 [cediranib] (first compound 1 µM, partner dose 0.4 µM) | 65.6%
O=c1[nH]nc(Sc2ncc([N+](=O)[O-])s2)n1-c1ccc2c(c1)OCCO2 + O=C(O)c1ccc(-c2c[nH]c3ncc(-c4ccccc4)cc23)cc1C1CCCC1 [GSK650394] (first compound 0.2 µM, partner dose 0.16 µM) | 96.3%
Cc1cc(Nc2cc(N3CCN(C)CC3)nc(Sc3ccc(NC(=O)C4CC4)cc3)n2)n[nH]1 [Tozasertib] + COc1cc2c(Oc3ccc4[nH]c(C)cc4c3F)ncnc2cc1OCCCN1CCCC1 [cediranib] (first compound 0.006 µM, partner dose 0.4 µM) | 136%
O=c1[nH]nc(Sc2ncc([N+](=O)[O-])s2)n1-c1ccc2c(c1)OCCO2 + NCC(=O)Nc1ccc(-n2nc(C(F)(F)F)cc2-c2ccc3c(ccc4ccccc43)c2)cc1 [OSU03012] (first compound 0.2 µM, partner dose 1 µM) | 58%
N#CC[C@H](C1CCCC1)n1cc(-c2ncnc3[nH]ccc23)cn1 [ruxolitinib] + CN(C)S(=O)(=O)c1ccc2c(c1)/C(=C/c1cc3c([nH]1)CCCC3)C(=O)N2 [SU6656] (first compound 1 µM, partner dose 0.4 µM) | 118%
CC[C@]1(O)C[C@H]2CN(CCc3c([nH]c4ccccc34)[C@@](C(=O)OC)(c3cc4c(cc3OC)N(C=O)[C@H]3[C@@](O)(C(=O)OC)[C@H](OC(C)=O)[C@]5(CC)C=CCN6CC[C@]43[C@@H]65)C2)C1 [vincristine] + O=C(Nc1cccc(Cl)c1)Nc1ncc(CCNc2ncnc3ccsc23)s1 [SNS314] (first compound 0.0001 µM, partner dose 0.0008 µM) | 166%

A portion from the list above, as a working copy:
Compound | cleaved PARP positive nuclei fraction
COc1cc([C@@H]2c3cc4c(cc3[C@@H](O[C@@H]3O[C@@H]5CO[C@@H](C)O[C@H]5[C@H](O)[C@H]3O)[C@H]3COC(=O)[C@H]23)OCO4)cc(OC)c1O [etoposide] + Cc1cc(N2CCOCC2)cc2[nH]c(-c3c(NC[C@@H](O)c4cccc(Cl)c4)cc[nH]c3=O)nc12 [BMS536924] (first compound 0.02 µM, partner dose 0.2 µM) | 61.5%
O=c1[nH]nc(Sc2ncc([N+](=O)[O-])s2)n1-c1ccc2c(c1)OCCO2 + O=C(CCCCCCC(=O)Nc1ccccc1)NO [vorinostat] (first compound 0.2 µM, partner dose 0.08 µM) | 88.6%
Cc1ccc(Nc2nccc(N(C)c3ccc4c(C)n(C)nc4c3)n2)cc1S(N)(=O)=O [Pazopanib] + CO[C@@H]1[C@H](N(C)C(=O)c2ccccc2)C[C@H]2O[C@]1(C)n1c3ccccc3c3c4c(c5c6ccccc6n2c5c31)C(=O)NC4 [Midostaurin] (first compound 0.4 µM, partner dose 0.08 µM) | 65.9%
N#CC[C@H](C1CCCC1)n1cc(-c2ncnc3[nH]ccc23)cn1 [ruxolitinib] + Cc1cc(N2CCOCC2)cc2[nH]c(-c3c(NC[C@@H](O)c4cccc(Cl)c4)cc[nH]c3=O)nc12 [BMS536924] (first compound 1 µM, partner dose 0.2 µM) | 30.8%
COc1cc([C@@H]2c3cc4c(cc3[C@@H](O[C@@H]3O[C@@H]5CO[C@@H](C)O[C@H]5[C@H](O)[C@H]3O)[C@H]3COC(=O)[C@H]23)OCO4)cc(OC)c1O [etoposide] + CO[C@@H]1[C@H](N(C)C(=O)c2ccccc2)C[C@H]2O[C@]1(C)n1c3ccccc3c3c4c(c5c6ccccc6n2c5c31)C(=O)NC4 [Midostaurin] (first compound 0.02 µM, partner dose 0.08 µM) | 115%
COc1cc([C@@H]2c3cc4c(cc3[C@@H](O[C@@H]3O[C@@H]5CO[C@@H](C)O[C@H]5[C@H](O)[C@H]3O)[C@H]3COC(=O)[C@H]23)OCO4)cc(OC)c1O [etoposide] + O=C(Nc1cccc(Cl)c1)Nc1ncc(CCNc2ncnc3ccsc23)s1 [SNS314] (first compound 0.02 µM, partner dose 0.0008 µM) | 152%
CCCCCCCCCCCCCCCCCCOP(=O)([O-])OC1CC[N+](C)(C)CC1 [Perifosine] + NC(=O)Nc1cc(-c2cccc(F)c2)sc1C(=O)N[C@H]1CCCNC1 [AZD7762] (first compound 0.4 µM, partner dose 0.02 µM) | 124%
